Among the data in PubChem BioAssay AID272 (DTP/NCI, 2004) are survivor count and T/C values, retold here.

SMILES strings stand for the structures. The list shows only some results of the screen, not a fair sample: it is rich in T/C values a quarter to a half above the control, in often repeated tests (any T/C) and in doses without a T/C. Other doses and runs of a compound stand elsewhere. T/C is the treated group as % of the vehicle group. Some doses have a count of surviving animals in place of a T/C: the source files T/C as zero there, which appears to mark a toxic dose or a test without result, not a measured value. Some survivor counts are full or nearly so, which does not show that the dose was tolerated: survival well below the control is almost never listed, so the zero probably covers shortened survival too. Survivors were counted at the toxicity check, usually on the fifth day, unless a day is given; later deaths do not show. Schedules are NCI's codes, taken here to give the interval after Q, in days (D) or hours (H), and the number of doses after X. Some entries were tested several times; their values stand side by side, smallest first. For survival time, the PubChem record calls one and a half times the control and up active, and a quarter to a half above the control has no call in these data; cut-offs in other NCI protocols can differ. Some T/C values carry the count of animals alive at the toxicity check (mostly the fifth day); where none is given, no animal had died by that day.

The assay has as its system Lewis lung carcinoma i.m., BDF1 mice, T/C %. Kind of assay: NCI In Vivo Anticancer Drug Screen. Data for tumor model Lewis Lung Carcinoma (intramuscular) in B6D2F1 (BDF1) mice. The essentials: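 Compound given to mice with transplantable tumours; survival or tumour size compared against the vehicle control group, reported as T divided by C.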
Setting [1] is: T/C endpoint: median survival time, dose: 25.0 mg/kg/injection, schedule: Q01DX011 (ip), vehicle: saline with Tween-80, higher T/C = longer survival.
[2] abbreviates: T/C endpoint: median survival time, dose: 50.0 mg/kg/injection, schedule: Q01DX011 (ip), vehicle: water, higher T/C = longer survival.
[3] abbreviates: T/C endpoint: median survival time, dose: 50.0 mg/kg/injection, schedule: Q01DX011 (ip), vehicle: saline, higher T/C = longer survival.
The mark [4] stands for this setting: T/C endpoint: median survival time, dose: 20.0 mg/kg/injection, schedule: Q01DX011 (ip), vehicle: saline, higher T/C = longer survival.

Consider `OCCNC1c2ccccc2-c2ccccc21`, for which the survivor count is, setting by setting: (T/C endpoint: mean tumor weight (est.), dose: 200.0 mg/kg/injection, schedule: Q01DX011 (ip), vehicle: saline with Tween-80, higher T/C = larger tumour) 5 of 8; under setting [1], 8 of 8; (T/C endpoint: median survival time, dose: 100.0 mg/kg/injection, schedule: Q01DX011 (ip), vehicle: saline with Tween-80, higher T/C = longer survival) 6 of 8; (T/C endpoint: median survival time, dose: 200.0 mg/kg/injection, schedule: Q01DX011 (ip), vehicle: saline with Tween-80, higher T/C = longer survival) 5 of 8.

In the case of `CN(C)CCCNc1c2ccccc2nc2cccc([N+](=O)[O-])c12`, the survivor count runs as follows: (T/C endpoint: median survival time, dose: 0.2 mg/kg/injection, schedule: Q02DX011 (ip), vehicle: saline, higher T/C = longer survival) 7 of 7; (T/C endpoint: median survival time, dose: 0.3 mg/kg/injection, schedule: Q02DX011 (ip), vehicle: saline, higher T/C = longer survival) 7 of 7; (T/C endpoint: median survival time, dose: 2.0 micrograms/kg/injection, schedule: Q01DX009 (ip), vehicle: saline, higher T/C = longer survival) 10 of 10; (T/C endpoint: median survival time, dose: 8.0 micrograms/kg/injection, schedule: Q01DX009 (ip), vehicle: saline, higher T/C = longer survival) 10 of 10; (T/C endpoint: median survival time, dose: 16.0 micrograms/kg/injection, schedule: Q01DX009 (ip), vehicle: saline, higher T/C = longer survival) 10 of 10; (T/C endpoint: median survival time, dose: 32.0 micrograms/kg/injection, schedule: Q01DX009 (ip), vehicle: saline, higher T/C = longer survival) 10 of 10.

Consider `CCCCCCCCCCCC(c1ccccc1)[N+](C)(C)Cc1ccccc1` (configuration not stated), for which the survivor count (T/C endpoint: mean tumor weight (est.), dose: 2.0 mg/kg/injection, schedule: Q01DX011 (ip), vehicle: saline, higher T/C = larger tumour) is recorded as 2 of 8; the survivor count (T/C endpoint: median survival time, dose: 2.0 mg/kg/injection, schedule: Q01DX011 (ip), vehicle: saline, higher T/C = longer survival) is reported as 2 of 8; the survivor count (T/C endpoint: median survival time, dose: 4.0 mg/kg/injection, schedule: Q01DX011 (ip), vehicle: saline, higher T/C = longer survival) is 0 of 8.

`[N-]=[N+]=CC(=O)CCC(N)C(=O)O` (configuration not stated): the survivor count runs as follows: (T/C endpoint: mean tumor weight, dose: 120.0 micrograms/kg/injection, schedule: Q01DX011 (ip), vehicle: saline, higher T/C = larger tumour) 5 of 8; (T/C endpoint: median survival time, dose: 0.12 mg/kg/injection, schedule: Q01DX011 (ip), vehicle: saline, higher T/C = longer survival) 2 of 8; (T/C endpoint: median survival time, dose: 0.25 mg/kg/injection, schedule: Q01DX011 (ip), vehicle: saline, higher T/C = longer survival) 0 of 8; (T/C endpoint: median survival time, dose: 0.5 mg/kg/injection, schedule: Q01DX011 (ip), vehicle: saline, higher T/C = longer survival) 0 of 8; (T/C endpoint: median survival time, dose: 1.0 mg/kg/injection, schedule: Q01DX011 (ip), vehicle: saline, higher T/C = longer survival) 0 of 8; (T/C endpoint: median survival time, dose: 15.0 micrograms/kg/injection, schedule: Q01DX011 (ip), vehicle: saline, higher T/C = longer survival) 6 of 8. For the same molecule, the survivor count (T/C endpoint: median survival time, dose: 120.0 micrograms/kg/injection, schedule: Q01DX011 (ip), vehicle: saline, higher T/C = longer survival) was 5 of 8.

Consider `Nc1ccn(C2OC(COP(=O)(O)O)C(O)C2O)c(=O)n1` (configuration not stated), for which the survivor count is recorded as 3 of 8 (T/C endpoint: mean tumor weight, dose: 32.6 mg/kg/injection, schedule: Q01DX011 (ip), vehicle: saline, higher T/C = larger tumour); 3 of 8 (T/C endpoint: median survival time, dose: 32.6 mg/kg/injection, schedule: Q01DX011 (ip), vehicle: saline, higher T/C = longer survival); 0 of 8 (T/C endpoint: median survival time, dose: 54.0 mg/kg/injection, schedule: Q01DX011 (ip), vehicle: saline, higher T/C = longer survival); 0 of 8 (T/C endpoint: median survival time, dose: 90.0 mg/kg/injection, schedule: Q01DX011 (ip), vehicle: saline, higher T/C = longer survival).

On to `CC(C)(C)CC(C)(C)NCC(O)COc1ccc(C(C)(C)c2ccc(OCC(O)CNC(C)(C)CC(C)(C)C)cc2)cc1` (configuration not stated), for which the survivor count by setting is: (T/C endpoint: mean tumor weight (est.), dose: 6.25 mg/kg/injection, schedule: Q01DX011 (ip), vehicle: other, higher T/C = larger tumour) 2 of 8; (T/C endpoint: median survival time, dose: 3.12 mg/kg/injection, schedule: Q01DX011 (ip), vehicle: other, higher T/C = longer survival) 8 of 8; (T/C endpoint: median survival time, dose: 6.25 mg/kg/injection, schedule: Q01DX011 (ip), vehicle: other, higher T/C = longer survival) 2 of 8; (T/C endpoint: median survival time, dose: 12.5 mg/kg/injection, schedule: Q01DX011 (ip), vehicle: other, higher T/C = longer survival) 0 of 8; (T/C endpoint: median survival time, dose: 25.0 mg/kg/injection, schedule: Q01DX011 (ip), vehicle: other, higher T/C = longer survival) 0 of 8.

Take `Nc1nncs1`: the survivor count is 3 of 8 (T/C endpoint: mean tumor weight, dose: 100.0 mg/kg/injection, schedule: Q01DX011 (ip), vehicle: water, higher T/C = larger tumour); 3 of 8 under setting [2]; 0 of 8 and 3 of 8 (T/C endpoint: median survival time, dose: 100.0 mg/kg/injection, schedule: Q01DX011 (ip), vehicle: water, higher T/C = longer survival); 0 of 8 and 1 of 8 (T/C endpoint: median survival time, dose: 200.0 mg/kg/injection, schedule: Q01DX011 (ip), vehicle: water, higher T/C = longer survival); 0 of 8 (T/C endpoint: median survival time, dose: 400.0 mg/kg/injection, schedule: Q01DX011 (ip), vehicle: water, higher T/C = longer survival). Besides, the T/C (T/C endpoint: median survival time, dose: 12.5 mg/kg/injection, schedule: Q01DX011 (ip), vehicle: water, higher T/C = longer survival) is 126 % of control and the T/C under setting [2] was 135 % of control [6 of 8 alive].

For the molecule `COc1ccc([I+]c2ccc(OC)cc2)cc1`, the survivor count reads like this: (T/C endpoint: median survival time, dose: 6.25 mg/kg/injection, schedule: Q01DX011 (ip), vehicle: saline, higher T/C = longer survival) 0 of 8 and 1 of 8; (T/C endpoint: median survival time, dose: 12.5 mg/kg/injection, schedule: Q01DX011 (ip), vehicle: saline, higher T/C = longer survival) 0 of 8; (T/C endpoint: median survival time, dose: 25.0 mg/kg/injection, schedule: Q01DX011 (ip), vehicle: saline, higher T/C = longer survival) 0 of 8; under setting [3], 0 of 8.

With `O=C(O)CCCC1CCCCC1.[Cu+2]`, the survivor count (T/C endpoint: mean tumor weight (est.), dose: 12.5 mg/kg/injection, schedule: Q01DX011 (ip), vehicle: saline with Tween-80, higher T/C = larger tumour) was 5 of 8; the survivor count (T/C endpoint: median survival time, dose: 6.25 mg/kg/injection, schedule: Q01DX011 (ip), vehicle: saline with Tween-80, higher T/C = longer survival) is given as 7 of 8; the survivor count (T/C endpoint: median survival time, dose: 12.5 mg/kg/injection, schedule: Q01DX011 (ip), vehicle: saline with Tween-80, higher T/C = longer survival) is 5 of 8; the survivor count under setting [1] is given as 0 of 8; the survivor count (T/C endpoint: median survival time, dose: 50.0 mg/kg/injection, schedule: Q01DX011 (ip), vehicle: saline with Tween-80, higher T/C = longer survival) is 0 of 8.

Consider `OC1CCCC2CCC[N-]C12.OC1CCCC2CCC[N-]C12.[O]=[V][OH]` (configuration not stated), for which the survivor count under setting [3] was 0 of 8.

Regarding `CS(=O)(=O)OCCCNCCCOS(C)(=O)=O`, the T/C under setting [4] is 131 % of control. Also, the survivor count reads like this: under setting [4], 7 of 8; (T/C endpoint: median survival time, dose: 40.0 mg/kg/injection, schedule: Q01DX011 (ip), vehicle: saline, higher T/C = longer survival) 10 of 10; (T/C endpoint: median survival time, dose: 80.0 mg/kg/injection, schedule: Q01DX011 (ip), vehicle: saline, higher T/C = longer survival) 0 of 10, 0 of 8, 7 of 10; (T/C endpoint: median survival time, dose: 160.0 mg/kg/injection, schedule: Q01DX011 (ip), vehicle: saline, higher T/C = longer survival) 0 of 10.

As for `CCCCCCCCCCCCCCCC[N+](C)(C)c1nc(Cl)nc(Cl)n1`, the survivor count by setting is: (T/C endpoint: mean tumor weight (est.), dose: 30.0 mg/kg/injection, schedule: Q01DX011 (ip), vehicle: saline, higher T/C = larger tumour) 1 of 8; (T/C endpoint: median survival time, dose: 30.0 mg/kg/injection, schedule: Q01DX011 (ip), vehicle: saline, higher T/C = longer survival) 1 of 8; (T/C endpoint: median survival time, dose: 60.0 mg/kg/injection, schedule: Q01DX011 (ip), vehicle: saline, higher T/C = longer survival) 0 of 8.

For `CC(C)[C@](O)(C(=O)OCC1=CC[N+]2([O-])CC[C@@H](O)[C@@H]12)[C@H](C)O` (some centres not stated), the survivor count runs as follows: (T/C endpoint: mean tumor weight (est.), dose: 800.0 mg/kg/injection, schedule: Q01DX011 (ip), vehicle: saline, higher T/C = larger tumour) 5 of 8; (T/C endpoint: median survival time, dose: 800.0 mg/kg/injection, schedule: Q01DX011 (ip), vehicle: saline, higher T/C = longer survival) 5 of 8; (T/C endpoint: median survival time, dose: 1600.0 mg/kg/injection, schedule: Q01DX011 (ip), vehicle: saline, higher T/C = longer survival) 0 of 8.

Regarding `Cc1n(CC(C)C)c2c([n+]1C)C(=O)c1ccccc1C2=O`, the survivor count is on record as 3 of 8 (T/C endpoint: mean tumor weight (est.), dose: 1.0 mg/kg/injection, schedule: Q01DX011 (ip), vehicle: saline with Tween-80, higher T/C = larger tumour); 3 of 8 (T/C endpoint: median survival time, dose: 1.0 mg/kg/injection, schedule: Q01DX011 (ip), vehicle: saline with Tween-80, higher T/C = longer survival); 0 of 8 (T/C endpoint: median survival time, dose: 4.0 mg/kg/injection, schedule: Q01DX011 (ip), vehicle: saline with Tween-80, higher T/C = longer survival); 0 of 8 (T/C endpoint: median survival time, dose: 8.0 mg/kg/injection, schedule: Q01DX011 (ip), vehicle: saline with Tween-80, higher T/C = longer survival).

With `CC1=C2C(=C[C@@](C)(CO)[C@@H]2O)C(=O)[C@](C)(O)C12CC2`, the survivor count (T/C endpoint: mean tumor weight, dose: 0.05 mg/kg/injection, schedule: Q01DX011 (ip), vehicle: other, higher T/C = larger tumour) was 1 of 8.
